Laboratory results published in PubChem BioAssay AID2551 (National Center for Advancing Translational Sciences (NCATS), 2010).
Out of some 310,000 compounds screened, about 17,000 (5.5%) were called active. The shares of active, inactive and inconclusive entries below differ from those in the screen. The call rests on the fitted dose curve; in most records, active means well fitted inhibition curve with a large enough effect; inconclusive means small, poorly fitted or top-dose-only effect, or effect the other way; inactive means no such curve, though single readings can be large or run the other way. Potencies of inconclusive entries are doubtful fits and often do not repeat.

The chains behind the UniProt entries cited, without tags or fusion partners. Where a name states a change or a piece, a line headed by the entry shows the natural chain unless it says otherwise.
UniProt P51450: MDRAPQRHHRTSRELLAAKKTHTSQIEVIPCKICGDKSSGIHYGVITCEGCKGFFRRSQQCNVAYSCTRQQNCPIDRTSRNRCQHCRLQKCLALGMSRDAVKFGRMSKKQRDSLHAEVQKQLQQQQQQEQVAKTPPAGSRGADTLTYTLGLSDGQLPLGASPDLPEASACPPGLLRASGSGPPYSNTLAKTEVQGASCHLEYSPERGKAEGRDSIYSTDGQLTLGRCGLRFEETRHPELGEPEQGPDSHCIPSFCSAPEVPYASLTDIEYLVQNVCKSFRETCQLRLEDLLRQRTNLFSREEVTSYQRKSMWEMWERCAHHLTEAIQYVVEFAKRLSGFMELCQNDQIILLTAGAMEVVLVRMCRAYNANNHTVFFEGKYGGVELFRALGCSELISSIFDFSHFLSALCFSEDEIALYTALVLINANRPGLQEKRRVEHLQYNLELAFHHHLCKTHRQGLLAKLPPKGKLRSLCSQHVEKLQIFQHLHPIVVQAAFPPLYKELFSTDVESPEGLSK

Target: Nuclear receptor ROR-gamma (Mus musculus) (UniProt P51450)
Test: qHTS for inhibitors of ROR gamma transcriptional activity; further: nearly all actives have a fitted effect of over 60% in size
Details: Drosophila S2 Gal4-RORgamma UAS-luciferase reporter, 20 h; activity change, negative = inhibition: at 53.6 µM (top of the series)
How it was run: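 Compounds are pin-transferred onto Drosophila Schneider cells expressing a copper-inducible Gal4–ROR gamma transactivation domain fusion. After 1 hr, copper sulfate is added to 700 uM final; luciferase is read 20 hr later.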
On the % scale 0 is the no-effect control and ±100 the full control effect; potency means the concentration at half of the fitted maximal effect.

SMILES	activity change, negative = inhibition	Potency
C=CCN1CCN(C(=O)CCc2ccccc2)CC1	inactive: -5.06%	–
COc1ccc(/C=N/N2CCOCC2)cc1O	inactive: 29.6%	–
CCn1c(-c2cc(C3CC3)nc3ccccc23)n[nH]c1=S	–	inconclusive: 10 µM [inhibitor, partial curve]
O=C1CCN(CCCc2ccccc2)CCN1CCO	–	inconclusive: 10 µM [activator, partial curve, poor fit]
COC(=O)C1CCN(C(c2cccs2)c2sc3nc(C)nn3c2O)CC1 (configuration not stated)	–	inconclusive: 0.447 µM [inhibitor, partial curve, poor fit]
Nc1ccc(Nc2nc(-c3cc4ccccc4oc3=O)cs2)cc1	inactive: -13.5%	–
COc1ccc(COC(=O)c2n[nH]c3ccccc23)cc1F	–	inconclusive: 5.62 µM [activator, single point]
COc1ccc(NC(=O)COC(=O)c2c3c(nc4ccccc24)CCCC3)cc1Cl	inactive: 20.6%	–
COc1cccc(C(=O)NC2CCN(C(=O)N3c4ccccc4Sc4ccccc43)CC2)c1	–	inconclusive: 7.08 µM [activator, full curve]
COc1ccc(C)cc1Nc1n[n+](-c2ccccc2)c(-c2ccc(N(C)C)cc2)s1	–	active: 11.2 µM
Cc1ccccc1-c1nn(-c2ccc(F)cc2F)cc1CNCCCN(C)C	inactive: -36.4%	–
CC(C)(C)OC(=O)NCCc1nnc(SCC(N)=O)o1	–	inconclusive: 3.55 µM [inhibitor, full curve, poor fit]
CCc1ccc2[nH]c(=O)c(C(c3nnnn3CCOC)N3CCN(c4ccccc4F)CC3)cc2c1 (configuration not stated)	inactive: 42.8%	–
COc1ccc(CNC(=O)C[C@H]2C(=O)N(Cc3ccc(OC)cc3)C[C@@H]2Cc2ccccc2)cc1	–	inconclusive: 15.8 µM [activator, single point]
O=C(O)c1ccc(OCCn2ccnc2)cc1	–	inconclusive: 35.5 µM [inhibitor, single point]
Cc1scc(C(=O)N/N=C/c2ccc(OCC(C)C)cc2)c1C	–	active: 11.2 µM
CCc1cccc(CC)c1NC(=S)Nc1cccc(Cl)c1Cl	–	inconclusive: 5.01 µM [inhibitor, partial curve]
CCNc1c(C(=O)O)ccc2c1C(=O)c1ccccc1C2=O	–	inconclusive: 35.5 µM [inhibitor, single point]
c1ccc2c(CSc3ncnc4nc[nH]c34)cccc2c1	–	inconclusive: 3.98 µM [activator, single point]
Cc1ccc(S(=O)(=O)Nc2nc3ccccc3s2)cc1[N+](=O)[O-]	–	inconclusive: 11.2 µM [activator, partial curve]
Cc1nn(C)cc1/C=N\NC(=O)c1ccc2c(c1)c(C)c(C)n2Cc1ccccc1	–	active: 15.8 µM
CCOC(=O)c1ccc(NC(=S)NN2CCOCC2)cc1	–	inconclusive: 25.1 µM [inhibitor, single point]
CC(=O)c1cccc(NC(=S)NC(=O)Cc2ccccc2)c1	–	active: 1.41 µM
Oc1cccc(/C=N/Nc2cccc3cccnc23)c1	–	active: 7.08 µM

Gathered by group, the compounds so far with a thiophene ring, fused or not
SMILES	activity change, negative = inhibition	Potency
COC(=O)C1CCN(C(c2cccs2)c2sc3nc(C)nn3c2O)CC1 (configuration not stated)	–	inconclusive: 0.447 µM [inhibitor, partial curve, poor fit]
Cc1scc(C(=O)N/N=C/c2ccc(OCC(C)C)cc2)c1C	–	active: 11.2 µM

Continued.

SMILES	activity change, negative = inhibition	Potency
COc1ccc(C)cc1S(=O)(=O)N1CCCC(C(=O)N2CCOCC2)C1 (configuration not stated)	inactive: -17.5%	–
CCn1nc(NC(=O)c2ccco2)c2cc3cc(C)ccc3nc21	inactive: 39.6%	–
Cn1c(=O)c2c(nc(Cl)n2CC(=O)N2CCCCC2)n(C)c1=O	inactive: 26.3%	–
NC(N)=N/N=C/c1ccc(OCc2ccccc2)c(OCc2ccccc2)c1	–	inconclusive: 20 µM [inhibitor, single point]
O=C(Cn1nc(-c2ccccc2)ccc1=O)NCCN1CCN(Cc2ccccc2)CC1	–	inconclusive: 35.5 µM [inhibitor, single point]
O=C(N/N=C/C=C/c1ccccc1)c1ccccc1Br	–	active: 3.16 µM
COc1ccccc1-c1ccc(SCc2cccc(C)c2)nn1	–	inconclusive: 35.5 µM [inhibitor, single point]
CS(=O)(=O)c1ccccc1C(=O)Nc1cccc2ncccc12	inactive: -1.27%	–
O=[N+]([O-])c1c(NCCCO)cc(SCc2ccco2)c2nonc12	–	inconclusive: 11.2 µM [inhibitor, single point]
O=C1c2ccccc2C(=O)N1c1cccc(-c2csc(Nc3ccc4c(c3)OCO4)n2)c1	–	inconclusive: 3.55 µM [activator, full curve, poor fit]
O=C(Cc1cccs1)N1CCN=C1SCc1cccc(F)c1	–	inconclusive: 14.1 µM [activator, single point]
CCN(CC)c1nc2ccccc2nc1-n1nc(C)cc1C	inactive: -0.32%	–
O=C(NCc1cccnc1)c1nc(-c2ccc(C(F)(F)F)cc2)no1	–	inconclusive: 35.5 µM [inhibitor, single point]
CCC(c1nnnn1Cc1cccs1)N1CCN(c2nc3ccccc3s2)CC1 (configuration not stated)	–	inconclusive: 12.6 µM [activator, single point]
CCOC(=O)C1(CCOc2ccccc2)CCN(CC2CC2)CC1	inactive: -32.6%	–
Cc1cccc(/C=N/n2c(-c3cc(-c4ccccc4)n[nH]3)n[nH]c2=S)c1	–	active: 7.94 µM
NCCC[C@@H](CC(=O)N[C@@H]1CCCC[C@H]1C(=O)N[C@H](CC(=O)N[C@@H](CCC(=O)O)CC(=O)O)Cc1c[nH]c2ccccc12)NC(=O)C[C@H](Cc1ccccc1)NC(=O)[C@@H]1CNCC[C@H]1N	inactive: 14%	–
CC(C)c1nc(C#N)c(NN)o1	–	inconclusive: 12.6 µM [inhibitor, single point]
COc1ccc(C(=O)NNC(=O)C2CCCO2)cc1 (configuration not stated)	inactive: -3.79%	–
C=CCCCCCCCCCCCC(O)CC(O)COC(C)=O (configuration not stated) (tested in a mixture with another compound)	inactive: 6.87%	–
Cc1c(/C=N/NC(=O)CNc2ccccc2)c2ccccn2c1C(=O)c1ccc(Cl)cc1	–	inconclusive: 12.6 µM [activator, partial curve]
CCN1CCN(Cc2ccc(NC(=O)c3ccc(C)c(NC(=O)c4cc(-c5ccc(Br)cc5)n[nH]4)c3)cc2C(F)(F)F)CC1	–	inconclusive: 35.5 µM [inhibitor, single point]
O=C(NCc1ccc(F)cc1)C1CCCN(S(=O)(=O)c2cccc3nsnc23)C1 (configuration not stated)	–	inconclusive: 35.5 µM [activator, single point]
